Our source for the binding values is patent publication US20130273046A1.

This experiment concerns the target T1, EDAR-GPI proteins (portions of human EDAR fused to the C-terminal portion of TRAIL-R3 with its GPI-addition sequence) on 293T cells (human) (UniProt O14798).
T1 sequence (chain, glycosylphosphatidylinositol (GPI) anchor at the C-terminus): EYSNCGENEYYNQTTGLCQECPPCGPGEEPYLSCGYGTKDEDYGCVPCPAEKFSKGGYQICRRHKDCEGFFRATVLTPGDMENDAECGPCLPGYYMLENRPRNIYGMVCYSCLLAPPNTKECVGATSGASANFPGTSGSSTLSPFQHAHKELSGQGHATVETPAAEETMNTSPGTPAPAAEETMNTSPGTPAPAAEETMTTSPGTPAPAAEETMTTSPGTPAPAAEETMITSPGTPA
The experiment can be described thus: FACS on transfected 293T cells (FIG. 11).

Results are given in words; binding and its absence hold for the method and conditions named. Some results given as binding are weak or reduced against the parent protein; the word gives no strength. Where a sequence is shown, tags or fusion partners need not be part of it.

B1: mAbEDAR2 (antibody, IgG1, V domains shown)
VH: QVQLQQPGAELVKPGASVKLSCKASGYTFTSYWMQWVKQRPGQGIEWIGEIDPSDSYTYYNQKFKGKATLTIDKSSSTAYMQLSSLTSEDSAVYYCSRKNYYRGMDYWGQGTSVTVSS
VL: DVLMTQTPLSLPVSLGDQASISCRSSQNIVQSNGNTYLEWYLQKPGQSPKLLIYKVSNRFSGVPDRFSGSGSGTDFTLKISRVEADDLGVYYCFQVSHVPYTFGGGTKLEIKR
Take B1: the binding result is “binds”.
